The record followed here is patent US20220162331A1 (CHENGDU CONMED BIOSCIENCES, published 2022).

Assay [1] addresses T1, human CD73 on Calu6 cells (human, UniProt P21589 27-549).
T1 sequence (looked up): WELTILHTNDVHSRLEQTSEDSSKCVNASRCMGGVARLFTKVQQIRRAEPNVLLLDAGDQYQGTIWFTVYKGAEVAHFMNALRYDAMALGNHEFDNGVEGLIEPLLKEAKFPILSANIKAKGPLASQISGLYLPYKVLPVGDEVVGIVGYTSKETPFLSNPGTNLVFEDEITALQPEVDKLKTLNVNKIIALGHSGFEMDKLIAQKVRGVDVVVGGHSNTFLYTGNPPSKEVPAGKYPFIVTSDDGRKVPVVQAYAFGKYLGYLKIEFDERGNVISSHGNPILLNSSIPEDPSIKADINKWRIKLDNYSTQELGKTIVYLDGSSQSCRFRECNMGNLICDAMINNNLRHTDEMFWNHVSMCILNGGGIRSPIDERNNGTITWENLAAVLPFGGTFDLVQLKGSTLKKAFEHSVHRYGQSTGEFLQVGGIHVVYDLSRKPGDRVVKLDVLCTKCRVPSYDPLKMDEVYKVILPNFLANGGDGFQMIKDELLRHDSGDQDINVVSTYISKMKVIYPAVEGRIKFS
Nature of the assay: flow cytometry on Calu6 cells, anti-mouse IgG-Fc-AF647 secondary. Background: Flow cytometry measures light scatter and fluorescence of single cells or particles in a stream.

Assay [2] deals with T2, human full-length CD73 on hCD73-CHO-1C11 cells (human) (UniProt P21589).
T2 sequence: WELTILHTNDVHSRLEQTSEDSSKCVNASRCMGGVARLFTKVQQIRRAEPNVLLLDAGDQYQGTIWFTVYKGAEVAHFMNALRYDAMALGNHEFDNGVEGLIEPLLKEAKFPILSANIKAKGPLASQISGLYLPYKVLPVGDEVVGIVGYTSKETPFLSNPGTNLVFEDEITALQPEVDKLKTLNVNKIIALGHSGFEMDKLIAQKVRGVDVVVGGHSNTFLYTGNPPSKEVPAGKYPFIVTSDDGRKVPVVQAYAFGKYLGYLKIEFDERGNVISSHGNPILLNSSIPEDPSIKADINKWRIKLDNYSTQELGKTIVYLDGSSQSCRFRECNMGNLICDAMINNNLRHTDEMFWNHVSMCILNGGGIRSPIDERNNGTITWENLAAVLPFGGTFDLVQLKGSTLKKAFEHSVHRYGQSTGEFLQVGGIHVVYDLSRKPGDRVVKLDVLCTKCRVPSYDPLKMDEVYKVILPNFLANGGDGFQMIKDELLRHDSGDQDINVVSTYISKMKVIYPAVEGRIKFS
Nature of the assay: flow cytometry on hCD73-CHO-1C11 cells, anti-mouse IgG-Fc-AF647 secondary.

No constants are given. Whether binding was seen depends on the method and setting. Some binding calls cover weakened binding; strength is not graded here.

B1: CD73 antibody 14H10 (antibody, V domains shown)
VH: QIQLQQSGAELARPGASVNLSCKASGYSFTSYWMQWLKQRPGQGLEWIGAIYPGDGDTRYTQKFKGKATLTADKSSSTAYMQLSSLASEDSAVYYCALFSYWGQGTLVTVSA
VL: DIQMTQSPSSLSASLGERVSLTCRASQDIGSSLNWLQQEPDGTFKRLIYATSTLDSGVPKRFSGSRSGSDYSLTISSLESEDFVDYYCLQYASFPYTFGGGTKLEIK
notes: Mouse variable regions on human IgG heavy chain constant region and human kappa constant region (chimeric IgG)
Take B1: the binding result in assay [1] and in assay [2] was “binds” in each case.
